Source: patent US6242442A (Alcon Laboratories, Inc., priority 2000, dated 2001)

Experiment: Acid-base balance and arterial gases, one-week multidose topical crossover study in rabbits
Format: in vivo, Dutch-Belted rabbits
Settings: 2% suspension topical
Protocol: Treatment measurements were made 90 minutes after the last dose on day eight. Optic nerve head blood flow and measured systemic variables were not changed by vehicle treatment. […] It is established that the vasculature of the ONH responds to increases in arterial O2 or CO2 tension by a reduction or an enhancement of ONH blood flow respectively.

## CCN[C@H]1CN(CCCOC)S(=O)(=O)c2sc(S(N)(=O)=O)cc21 [brinzolamide, R-(+)-4ethylamino-3,4-dihydro-2-(3-methoxy)propyl-2H thieno[3,2,e]1,2thiazene-6sulfonamide-1,1dioxide]
  arterial CO2 tension: below
  arterial O2 tension: above baseline levels
